{"sequences": {"note": "Amino acid sequences for entries named in this document (tags omitted).", "UniProt O15379, whole entry, looked up": "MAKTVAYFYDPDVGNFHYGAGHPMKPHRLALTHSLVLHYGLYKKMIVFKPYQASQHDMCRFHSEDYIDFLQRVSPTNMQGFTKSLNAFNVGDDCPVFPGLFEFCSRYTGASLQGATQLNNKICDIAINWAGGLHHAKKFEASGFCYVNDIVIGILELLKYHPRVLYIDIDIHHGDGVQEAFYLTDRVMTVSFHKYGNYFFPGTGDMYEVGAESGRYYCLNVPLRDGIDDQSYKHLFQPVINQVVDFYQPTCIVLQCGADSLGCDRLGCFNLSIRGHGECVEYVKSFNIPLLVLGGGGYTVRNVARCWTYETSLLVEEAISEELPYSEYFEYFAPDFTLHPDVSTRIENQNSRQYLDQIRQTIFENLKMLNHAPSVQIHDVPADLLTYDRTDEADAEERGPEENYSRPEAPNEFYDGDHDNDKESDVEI"}, "source": "PubChem BioAssay AID2718", "about": "(Broad Institute, 2010)", "note": "Screen size: about 320,000 compounds; about 480 (0.15%) were called active. The inconclusive results got no clear call from the source; some entries with a clear call stand among them for comparison. Rule as the data show it: active = inhibition above about 26% (passing the limit was not always enough); inconclusive = no clear call, values can overlap the other calls. Peptide text beside a SMILES is read from it. * marks the point of attachment. Boc = CC(C)(C)OC(=O)*"}
{"biological_target": "Histone deacetylase 3 (Homo sapiens) (UniProt O15379)", "assay": "HDAC3 deacetylase inhibitors, primary screen, biochemical, fluorescence, cell-free homogeneous (AID 2718)", "conditions": "recombinant HDAC3, fluorogenic peptide/trypsin coupled, at 8.3 µM, active compounds read high"}
{"smiles": "CCOCCc1nnc(NC(=O)CCS(=O)(=O)c2ccccc2)s1", "inhibition": "inactive: 1.4%"}
{"smiles": "Cc1c(C(=O)N2CCN(c3ccccc3F)CC2)oc2c1C(=O)CC(C)(C)C2", "inhibition": "inconclusive: 11.6%"}
{"smiles": "CCOC(=O)Nc1ccc(Oc2ccccc2)cc1", "inhibition": "inactive: 7.4%"}
{"smiles": "CCOC(=O)C1=C(C)C2C3C(=O)N(c4ccccc4C)C(=O)C3C1(C)C1C(=O)N(c3ccccc3C)C(=O)C21", "note": "(stereo not given)", "inhibition": "inactive: 0.792%"}
{"smiles": "COc1ccc(S(=O)(=O)N2CCOCC2)cc1NC(=O)c1cccc(-n2cccc2)c1", "inhibition": "inactive: 5.11%"}
{"smiles": "Cc1cc(C(=O)N/N=C/c2ccc(O)c([N+](=O)[O-])c2)c(C)n1-c1ccc(F)cc1", "inhibition": "inconclusive: 16.1%"}
{"smiles": "Nc1nc(Sc2ncccc2[N+](=O)[O-])n[nH]1", "inhibition": "inconclusive: 18.9%"}
{"smiles": "CSc1ccc(/C=N\\NC(=O)CNc2ccc(C)cc2)cc1", "inhibition": "inconclusive: 18.2%"}
{"smiles": "CC(OC(=O)C1CC1)C(=O)Nc1ncc(Cl)cc1Cl", "note": "(stereo not given)", "inhibition": "inactive: 5.11%"}
{"smiles": "CCc1ccccc1OCCCCN1CCCC1", "inhibition": "inconclusive: 14.1%"}
{"smiles": "COc1ccc(N=C/C=C2/C=C(c3ccccc3)OC(C)(C)O2)cc1", "inhibition": "inconclusive: 19.5%"}
{"smiles": "CCn1cnc2cc(NCc3nc4ccccc4n3Cc3ccccc3)ccc21", "inhibition": "inconclusive: 17.4%"}
{"smiles": "CCCCNC(=O)c1onc(CSc2ccc(Cl)cc2)c1C(=O)O", "inhibition": "inconclusive: 12.4%"}
{"smiles": "O=C(c1ccccc1-c1ccccc1)N1CCCCC1", "inhibition": "inconclusive: 12.9%"}
{"smiles": "O=C/C=C/c1coc2ccc3ccccc3c2c1=O", "inhibition": "inactive: -1.39%"}
{"smiles": "Cc1ccc(CNC(=O)c2ccc([N+](=O)[O-])o2)cc1", "inhibition": "inconclusive: 16.8%"}
{"smiles": "CC(C)=CCC[C@](C)(O[C@@H]1O[C@H](CO[C@@H]2O[C@H](CO)[C@@H](O)[C@H](O)[C@H]2O)[C@@H](O)[C@H](O)[C@H]1O)C1CC[C@]2(C)C1C(=O)CC1[C@@]3(C)CC[C@H](O[C@H]4O[C@@H](CO)[C@H](O)[C@@H](O)[C@@H]4O)C(C)(C)C3CC[C@]12C", "note": "(stereo not given in full)", "inhibition": "inactive: -2.42%"}
{"smiles": "Cc1cc(C)n2nc(C(=O)OCC(=O)N(C)C3CCS(=O)(=O)C3)nc2n1", "note": "(stereo not given)", "inhibition": "inactive: -0.607%"}
{"smiles": "N#Cc1ccccc1Sc1ccccc1C(=O)NCC(c1ccco1)N1CCCCC1", "note": "(stereo not given)", "inhibition": "inactive: -2.24%"}
{"smiles": "CN(C)c1ccc(/C=C(\\NC(=O)c2ccccc2)C(=O)N/N=C/c2ccc(C(=O)O)cc2)cc1", "inhibition": "inactive: 9.7%"}
{"smiles": "O=C(O)Cc1sc(Nc2ccccc2)nc1-c1ccc(Cl)cc1", "inhibition": "inconclusive: 25.2%"}
{"smiles": "COc1cc(C)ccc1OCCON1C(=O)CCC1=O", "inhibition": "inactive: -1.21%"}
{"smiles": "COc1ccccc1-c1sc2cc3c(cc2c1C#CC1(O)CCCCC1)OCO3", "inhibition": "inconclusive: 3.56%"}
{"smiles": "O=C(CNC1CCCCC1)Nc1cccc([N+](=O)[O-])c1", "inhibition": "inconclusive: 12.9%"}
{"smiles": "CCOC(=O)c1cnn(-c2ccccc2)c1-n1cccc1C(=O)C(=O)Nc1ccc(F)cc1", "inhibition": "inconclusive: 20.4%"}
{"smiles": "O=C(/C=C/c1ccccc1)N(Cc1cccs1)C1CCS(=O)(=O)C1", "note": "(stereo not given)", "inhibition": "inconclusive: 12%"}
{"smiles": "CCOc1ccc2nc(N3CCOCC3)nc(C)c2c1", "inhibition": "inconclusive: 7.81%"}
{"smiles": "Cc1ccc(-c2nnc(Nc3ccccc3)c3ccccc23)cc1S(=O)(=O)NCC1CCCO1", "note": "(stereo not given)", "inhibition": "inactive: 9.11%"}
{"smiles": "CC12CC(NC(=O)N1c1cccc(C(=O)N3CCCCC3)c1)c1ccccc1O2", "note": "(stereo not given)", "inhibition": "inconclusive: 20%"}
{"smiles": "Cc1nc(NC(=O)c2ccccc2)sc1-c1csc(NCCc2ccccc2)n1", "inhibition": "inconclusive: 27.1%"}
{"smiles": "CCC(=O)c1ccc(Oc2nc3c(c(=O)n(C)c(=O)n3C)n2CC)cc1", "inhibition": "inactive: 0.126%"}
{"smiles": "COCCSc1nnc(NC(=O)c2ccc3c(c2)OCO3)s1", "inhibition": "inactive: 5.09%"}
{"smiles": "Cc1c(OC(C)C(=O)NCCCn2ccnc2)ccc2c3c(c(=O)oc12)CCC3", "note": "(stereo not given)", "inhibition": "inconclusive: 13.8%"}
{"smiles": "CCOCCCNC(=O)C(NC(=O)c1ccccc1O)c1ccc(C)cc1", "note": "(stereo not given)", "inhibition": "inactive: -12%"}
{"smiles": "CCOc1ccc(CCNC(=O)Cc2ccc(NC(=O)C3=C(C)OCCS3)cc2)cc1", "inhibition": "inconclusive: 15.4%"}
{"smiles": "CCCn1nnnc1SCC(=O)NCc1ccc(OC)cc1", "inhibition": "inconclusive: 24.3%"}
{"smiles": "COc1ccc(C(=O)N2CCCC(Nc3ccc(C)c(C)c3)C2)cc1F", "note": "(stereo not given)", "inhibition": "inactive: -1.96%"}
{"smiles": "COc1ccc(CNc2nc(SCc3cc(=O)n4cc(Cl)ccc4n3)nc3ccccc23)cc1", "inhibition": "inconclusive: 20.3%"}
{"smiles": "CCCC(=O)Nc1nc(C)c(-c2csc(Nc3ccccc3OC)n2)s1", "inhibition": "inconclusive: 14.2%"}
{"smiles": "CSc1cccc(NC(=O)CCCNC(=O)c2ccc(Cl)cc2)c1", "inhibition": "inconclusive: 26.6%"}
{"smiles": "O=S(=O)(c1ccccc1)c1nc(-c2ccccc2)oc1N1CCCC1", "inhibition": "inactive: 0.254%"}
{"smiles": "O=[N+]([O-])c1cccnc1N1CCC(c2cc(-c3ccc(Cl)cc3)n[nH]2)CC1", "inhibition": "inconclusive: 19.6%"}
{"smiles": "O=C1COc2ccc(C(=O)NCc3ccco3)cc2N1", "inhibition": "inconclusive: 22.2%"}
{"smiles": "CC(C)c1ccc(C2CC(=O)N3CN(Cc4ccco4)CSC3=C2C#N)cc1", "note": "(stereo not given)", "inhibition": "inconclusive: 23.9%"}
{"smiles": "Cc1ccc(C(OCC(O)CNC(C)c2ccccc2)c2ccccc2)cc1", "note": "(stereo not given)", "inhibition": "inconclusive: 12.9%"}
{"smiles": "C/C(Cc1ccccc1)=N\\NC(=O)CNC(=O)COc1cccc(C)c1", "inhibition": "inconclusive: 10.6%"}
{"smiles": "O=C1C2CCCN2C(=O)N1CCCCN1CCN(c2cccc(Cl)c2)CC1", "note": "(stereo not given)", "inhibition": "inactive: 0.478%"}
{"smiles": "Cc1cc2cc(CNC(=O)c3ccc(S(=O)(=O)N4CCCC4)cc3)ccc2n1C", "inhibition": "inconclusive: 14%"}
{"smiles": "COc1ccc(C(=O)Nc2ccc(Oc3ncnc4sc(-c5ccccc5)cc34)cc2)cc1OC", "inhibition": "inactive: -7%"}
{"smiles": "Cc1ccnc(NS(=O)(=O)c2ccc(NC(=O)c3ccc(S(=O)(=O)N4CC(C)OC(C)C4)cc3)cc2)n1", "note": "(stereo not given)", "inhibition": "inconclusive: 13.1%"}
{"smiles": "O=C(c1cc2cc(F)ccc2[nH]1)N1CCN(C(=O)c2ccco2)CC1", "inhibition": "inconclusive: 19.4%"}
{"smiles": "O=C(CN1CCN(Cc2ccc(Cl)cc2)C1=O)NCc1cccs1", "inhibition": "inconclusive: 9.17%"}
{"smiles": "COc1cccc(-c2nc(Oc3cccc(C)c3C)c3ccccc3n2)c1O", "inhibition": "inconclusive: 17.3%"}
{"smiles": "COc1cc(/C=N/NC(=O)c2cc(-c3cccc(Br)c3)nc3ccccc23)cc(OC)c1O", "inhibition": "inconclusive: 22.5%"}
{"smiles": "Cc1cnc(NC(=O)CCNC(=O)c2ccccc2Cl)s1", "inhibition": "inconclusive: 13.2%"}
{"smiles": "COc1ccc(C2c3c(-c4ccccc4O)n[nH]c3C(=O)N2CCc2ccc(OC)c(OC)c2)cc1", "note": "(stereo not given)", "inhibition": "inconclusive: 25.3%"}
{"smiles": "O=[N+]([O-])c1ccccc1NCCNc1ncc(C(F)(F)F)cc1Cl", "inhibition": "inactive: 1.7%"}
{"smiles": "CCN(CC)c1ccc(NS(=O)(=O)c2ccc3c(c2)oc(=O)n3C)c(C)c1", "inhibition": "inactive: 3.17%"}
{"smiles": "COc1ccc(NC(=O)CN2C(=O)CSC(C)C2=O)c(OC)c1", "note": "(stereo not given)", "inhibition": "inconclusive: 22.7%"}
{"smiles": "Cc1ccc(NC(=O)Cn2nc(C(=O)Nc3ccc(C)cc3)ccc2=O)cc1", "inhibition": "inconclusive: 5.76%"}
{"smiles": "Cc1ccc(S(=O)(=O)NCC(C)NS(=O)(=O)c2ccccc2[N+](=O)[O-])cc1", "note": "(stereo not given)", "inhibition": "inconclusive: 13.2%"}
{"smiles": "O=C(/C(=C/c1ccc(Cl)cc1)c1nc2ccccc2[nH]1)c1ccccc1", "inhibition": "inactive: -1.18%"}
{"smiles": "O=C(Oc1oc(-c2ccco2)nc1C=Nc1ccc(Cl)cc1)c1ccco1", "inhibition": "inconclusive: 13.8%"}
{"smiles": "CC(C)CN1CCN(Cc2ccc(Oc3ncccn3)cc2)CC1CCO", "note": "(stereo not given)", "inhibition": "inconclusive: 12.8%"}
{"smiles": "COc1ccccc1NC(=O)CCn1c(=O)c2cccn2c2ccccc21", "inhibition": "inconclusive: 14.4%"}
{"smiles": "Nc1nc(N)nc(-c2cc(O)ccc2O)n1", "inhibition": "inconclusive: 21.2%"}
{"smiles": "COc1ccc(-c2nc3cc(C)ccn3c2NCc2ccc3c(c2)OCO3)cc1", "inhibition": "inactive: -20.9%"}
{"smiles": "COC(=O)c1[nH]c2ccc(C)cc2c1NS(=O)(=O)c1ccc(F)cc1", "inhibition": "inactive: 2.26%"}
{"smiles": "O=C(Nc1ccn(Cc2ccc(Cl)cc2)n1)c1ccccc1", "inhibition": "inconclusive: 18.2%"}
{"smiles": "CC(C)C[C@H](NC(=O)c1nc[nH]c1C(=O)N(C)Cc1ccccc1)C(=O)OCc1ccccc1", "inhibition": "inconclusive: 29.1%"}
{"smiles": "O=C(c1ccc(N2CCOCC2)cc1)c1cccs1", "inhibition": "inconclusive: 16%"}
{"smiles": "CCOc1nc(Nc2cc(Cl)ccc2OC)nc(OCC)n1", "inhibition": "inconclusive: 19%"}
{"smiles": "COC(=O)C(CC(C)C)NC(=O)C(Cc1ccccc1)NC(=O)C1CCCN1C(=O)OC(C)(C)C", "note": "(stereo not drawn) (Boc-Pro-Phe-Leu-OMe; configuration not given here)", "inhibition": "inconclusive: 18%"}
{"smiles": "CC1=C(C(=O)OC(C)C)C(c2cccs2)C(C(=O)OC(C)C)=C(C)N1", "inhibition": "active: 29.3%"}
{"smiles": "Cn1c(=O)[nH]c(=O)c2c1nc(SCCO)n2CCCc1ccccc1", "inhibition": "inconclusive: 15.1%"}
{"smiles": "OC(CN1CCN(c2ccccn2)CC1)Cn1c2ccc(Cl)cc2c2cc(Cl)ccc21", "note": "(stereo not given)", "inhibition": "inconclusive: 25.2%"}
{"smiles": "CN(C)S(=O)(=O)c1cccc(NC(=O)C2CCN(S(=O)(=O)c3cccs3)CC2)c1", "inhibition": "inconclusive: 10.7%"}
{"smiles": "COc1ccc(CCNC(=O)CCCOc2ccc(Cl)cc2)cc1OC", "inhibition": "inactive: -1.95%"}
{"smiles": "O=C(Oc1ccc(N(Cc2cccs2)C2=NS(=O)(=O)c3ccccc32)cc1)c1ccco1", "inhibition": "active: 58.1%"}
{"smiles": "COc1cccc(C(=O)NC2=NCCS2)c1OC", "inhibition": "inconclusive: 57.6%"}
{"smiles": "CCOc1ccc(Nc2oc(-c3ccc(Cl)cc3)nc2C#N)cc1", "inhibition": "inconclusive: 15.9%"}
{"smiles": "CS(=O)(=O)N(CC(=O)N1CCN(c2ccccc2)CC1)Cc1ccc(Cl)cc1", "inhibition": "inconclusive: 17.9%"}
{"smiles": "Oc1ccc(Nc2nc(-c3ccc4ccccc4c3)cs2)cc1", "inhibition": "inconclusive: 19.6%"}
{"smiles": "O=C(COC(=O)c1nc(Cl)c(Cl)c(Cl)c1Cl)c1ccc[nH]1", "inhibition": "inactive: -1.09%"}
{"smiles": "Cc1nn(-c2ccccn2)c(C)c1Oc1ccccc1O", "inhibition": "inactive: -1.23%"}
